In US10934224B2, “Production of arginine-rich proteins from wastewater and use as a fertilizer” (Genebiologics, LLC, priority 2016, dated 2021):
Some entries share one result that the patent states for a list of compounds.

Test system: Arabidopsis thaliana seeds
Experiment: Arabidopsis thaliana seed germination and growth in liquid culture
Format: in vivo
Conditions: dose-dependent
Protocol: Approximately 300 Arabidopsis thaliana seeds were soaked in 75% ethanol for one minute, then soaked in 10% bleach, 0.02% TRITON×100 for five minutes, then washed five times with sterile water. The seeds were then resuspended in about 4 ml water, and dispensed into 30 Eppendorf tubes at approximately 100 microliters per tube, for a total of 8-9 seeds per tube. Test conditions included either water, 1× or 0.1×MS medium (Caisson; […] Root length and stem lengths are in mm.

polyarginine
x-fold germination (day 4, 1× MS nitrogen-replete media): up to 9 fold | x-fold biomass (day 5, wet weight total biomass): up to 4 fold
